PubChem BioAssay AID1259424 – University of Nebraska Medical Center | 2018

Purpose: 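Find knockdowns that reproduce the expression shifts seen after KSR1 loss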 (primary screen)
System: human HCT116 colon cancer cells
Reagents: siRNA pool against human genes, 50 nM
Measured: 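Six signature mRNAs by branched-DNA multiplex assay, scaled to two housekeeping genes and non-targeting median, log2; matched to mean KSR1 knockdown profile by Pearson correlation and euclidean distance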
Scale: mean correlation with KSR1 profile: higher = expression change more like KSR1 knockdown
Here is one part, drawn at random, of about 14,000 reagents. 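Higher correlation or smaller distance means closer resemblance to KSR1 loss; control wells, including KSR1 knockdowns, recur on many plates.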 Some reagents were tested in more than one well and are listed for each. Further read-outs or replicates are left out here. Not given: the time to read-out.

no.	gene knocked down	mean correlation with KSR1 profile
1	PLA2G4A (phospholipase A2 group IVA)	0.563
2	ABRA (actin binding Rho activating protein)	0.0919
3	JTB (jumping translocation breakpoint)	-0.484
4	ZNF250 (zinc finger protein 250)	0.0541
5	SNRPE (small nuclear ribonucleoprotein polypeptide E)	-0.0525
6	GRK7 (G protein-coupled receptor kinase 7)	0.867
7	GRK7 (G protein-coupled receptor kinase 7)	0.2
8	RBM22 (RNA binding motif protein 22)	-0.631
9	RFX3 (regulatory factor X3)	-0.0692
10	RPN2 (ribophorin II)	-0.265
11	RPE (ribulose-5-phosphate-3-epimerase)	0.264
12	TMEM63B (transmembrane protein 63B)	-0.301
13	TUBG1 (tubulin gamma 1)	-0.188
14	PCDHA3 (protocadherin alpha 3)	0.832
15	GULP1 (GULP PTB domain containing engulfment adaptor 1)	0.194
16	TOR2A (torsin family 2 member A)	-0.207
17	NMRK2 (nicotinamide riboside kinase 2)	0.253
18	ALYREF (Aly/REF export factor)	-0.566
19	ADAM19 (ADAM metallopeptidase domain 19)	0.492
20	SWT1 (SWT1 RNA endoribonuclease homolog)	0.606
21	FBXO2 (F-box protein 2)	-0.131
22	NUAK2 (NUAK family kinase 2)	-0.221
23	SLC25A18	0.411
24	KRTAP9-2 (keratin associated protein 9-2)	0.334
25	GCNT1 (glucosaminyl (N-acetyl) transferase 1)	-0.545
26	TBX6 (T-box transcription factor 6)	-0.0435
27	C1D (C1D nuclear receptor corepressor)	-0.0613
28	NELL2 (neural EGFL like 2)	-0.0218
29	FBN3 (fibrillin 3)	0.548
30	AP2M1 (adaptor related protein complex 2 subunit mu 1)	-0.323
31	C1RL (complement C1r subcomponent like)	-0.591
32	FN3KRP (fructosamine 3 kinase related protein)	0.643
33	TMEM127 (transmembrane protein 127)	-0.105
34	TCN1 (transcobalamin 1)	0.154
35	LOXL4 (lysyl oxidase like 4)	0.527
36	NFE2 (nuclear factor, erythroid 2)	-0.131
37	STRN3 (striatin 3)	-0.229
38	AQP9 (aquaporin 9)	0.101
39	CDO1 (cysteine dioxygenase type 1)	-0.116
40	MYCBPAP (MYCBP associated protein)	0.881
41	LONP2 (lon peptidase 2, peroxisomal)	0.273
42	MMRN1 (multimerin 1)	-0.719
43	PLCB2 (phospholipase C beta 2)	0.446
44	EPHA2 (EPH receptor A2)	0.106
45	HEYL	0.413
46	CHIA (chitinase acidic)	0.836
47	MS4A8 (membrane spanning 4-domains A8)	-0.0469
48	TCTN3 (tectonic family member 3)	-0.42
49	TCTN1 (tectonic family member 1)	0.688
50	ABCC8 (ATP binding cassette subfamily C member 8)	0.115
51	LY6D (lymphocyte antigen 6 family member D)	-0.314
52	PGK1 (phosphoglycerate kinase 1)	0.294
53	MED10 (mediator complex subunit 10)	0.0316
54	SLIRP (SRA stem-loop interacting RNA binding protein)	0.383
55	DGKH (diacylglycerol kinase eta)	0.382
56	WDR55 (WD repeat domain 55)	0.142
57	CCL21 (C-C motif chemokine ligand 21)	0.152
58	BCAT1 (branched chain amino acid transaminase 1)	0.53
59	CCDC121 (coiled-coil domain containing 121)	0.225
60	FASTKD1 (FASTK mitochondrial RNA regulator 1)	0.534
61	CIAO2A (cytosolic iron-sulfur assembly component 2A)	0.586
62	RGS20 (regulator of G protein signaling 20)	0.702
63	CGNL1 (cingulin like 1)	-0.896

5 successive entries from above:
no.	gene knocked down	mean correlation with KSR1 profile
44	EPHA2 (EPH receptor A2)	0.106
45	HEYL	0.413
46	CHIA (chitinase acidic)	0.836
47	MS4A8 (membrane spanning 4-domains A8)	-0.0469
48	TCTN3 (tectonic family member 3)	-0.42
